In the supplement of paper PMC12595434, “Development of retinoid nuclear receptor pathway antagonists through targeting aldehyde dehydrogenase 1A3” (iScience, 2025):
This is one part of the list. The data scatter; read single values as rough.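 Many melting curves are irregular; where none melted, Tm was taken as 64 °C.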

Protein sequences, listed by entry. Tags and fused reporters are not part of them. Lines headed by an entry give the natural chain unless they say otherwise; changes in a name come on top.
UniProt P35080, whole entry: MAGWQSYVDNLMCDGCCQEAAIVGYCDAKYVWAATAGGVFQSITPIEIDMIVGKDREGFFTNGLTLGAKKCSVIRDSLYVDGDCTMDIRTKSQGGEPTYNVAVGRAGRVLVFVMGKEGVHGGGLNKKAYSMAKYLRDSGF
UniProt P36543, whole entry: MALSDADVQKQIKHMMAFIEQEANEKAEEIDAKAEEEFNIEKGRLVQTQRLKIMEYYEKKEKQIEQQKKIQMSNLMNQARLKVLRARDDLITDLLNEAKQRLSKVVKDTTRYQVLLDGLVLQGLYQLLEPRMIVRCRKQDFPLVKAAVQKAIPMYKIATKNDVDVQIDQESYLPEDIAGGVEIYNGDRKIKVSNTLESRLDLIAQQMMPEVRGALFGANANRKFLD
UniProt P29558: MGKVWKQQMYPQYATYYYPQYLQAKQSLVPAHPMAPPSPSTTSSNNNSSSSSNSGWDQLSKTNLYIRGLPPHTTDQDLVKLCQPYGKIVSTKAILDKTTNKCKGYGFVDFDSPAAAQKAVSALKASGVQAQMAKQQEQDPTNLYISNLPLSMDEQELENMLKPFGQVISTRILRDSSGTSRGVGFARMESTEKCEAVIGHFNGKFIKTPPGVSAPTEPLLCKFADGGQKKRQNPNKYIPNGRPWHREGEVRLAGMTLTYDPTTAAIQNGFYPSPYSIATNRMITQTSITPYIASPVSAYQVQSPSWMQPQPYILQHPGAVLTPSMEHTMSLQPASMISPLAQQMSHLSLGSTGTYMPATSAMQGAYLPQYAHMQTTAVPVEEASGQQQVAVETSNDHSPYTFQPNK
UniProt P31483: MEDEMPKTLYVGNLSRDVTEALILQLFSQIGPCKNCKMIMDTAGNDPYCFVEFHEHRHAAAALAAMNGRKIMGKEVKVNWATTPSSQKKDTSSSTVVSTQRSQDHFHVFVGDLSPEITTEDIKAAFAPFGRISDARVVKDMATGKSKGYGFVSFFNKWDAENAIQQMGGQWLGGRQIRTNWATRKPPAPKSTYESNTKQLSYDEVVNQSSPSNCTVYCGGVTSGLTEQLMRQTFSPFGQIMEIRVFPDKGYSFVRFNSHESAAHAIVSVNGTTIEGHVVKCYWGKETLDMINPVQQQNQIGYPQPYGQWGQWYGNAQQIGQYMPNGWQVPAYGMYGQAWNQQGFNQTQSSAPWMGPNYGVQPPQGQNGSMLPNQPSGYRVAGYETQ
UniProt P28715: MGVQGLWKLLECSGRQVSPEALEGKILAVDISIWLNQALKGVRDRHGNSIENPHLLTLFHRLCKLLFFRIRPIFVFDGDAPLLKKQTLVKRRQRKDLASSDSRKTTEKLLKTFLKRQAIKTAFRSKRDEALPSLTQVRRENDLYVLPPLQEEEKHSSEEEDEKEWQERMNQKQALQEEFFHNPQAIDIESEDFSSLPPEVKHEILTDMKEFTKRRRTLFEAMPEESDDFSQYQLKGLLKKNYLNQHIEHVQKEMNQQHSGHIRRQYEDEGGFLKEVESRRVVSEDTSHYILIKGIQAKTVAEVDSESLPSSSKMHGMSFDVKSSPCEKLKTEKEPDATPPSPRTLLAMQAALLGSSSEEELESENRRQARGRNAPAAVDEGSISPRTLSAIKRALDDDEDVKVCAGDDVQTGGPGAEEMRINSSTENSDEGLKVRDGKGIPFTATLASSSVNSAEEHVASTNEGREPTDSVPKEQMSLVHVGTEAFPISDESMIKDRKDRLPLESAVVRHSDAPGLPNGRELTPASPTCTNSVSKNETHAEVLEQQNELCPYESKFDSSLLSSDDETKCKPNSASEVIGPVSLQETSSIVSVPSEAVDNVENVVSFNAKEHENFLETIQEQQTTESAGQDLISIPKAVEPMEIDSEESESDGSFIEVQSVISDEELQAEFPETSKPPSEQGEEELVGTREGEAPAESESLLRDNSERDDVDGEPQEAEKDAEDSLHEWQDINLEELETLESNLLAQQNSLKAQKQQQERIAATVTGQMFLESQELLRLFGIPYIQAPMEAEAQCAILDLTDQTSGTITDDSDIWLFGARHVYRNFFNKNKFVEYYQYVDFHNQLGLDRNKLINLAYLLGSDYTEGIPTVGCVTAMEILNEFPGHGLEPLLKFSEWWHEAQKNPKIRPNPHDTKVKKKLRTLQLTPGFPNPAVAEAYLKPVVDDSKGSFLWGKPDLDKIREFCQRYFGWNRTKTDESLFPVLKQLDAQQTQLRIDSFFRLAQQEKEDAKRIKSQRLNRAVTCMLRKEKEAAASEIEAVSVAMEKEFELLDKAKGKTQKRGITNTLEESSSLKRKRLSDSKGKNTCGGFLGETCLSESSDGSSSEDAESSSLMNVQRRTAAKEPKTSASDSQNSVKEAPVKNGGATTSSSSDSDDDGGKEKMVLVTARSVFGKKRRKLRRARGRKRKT
UniProt P33992: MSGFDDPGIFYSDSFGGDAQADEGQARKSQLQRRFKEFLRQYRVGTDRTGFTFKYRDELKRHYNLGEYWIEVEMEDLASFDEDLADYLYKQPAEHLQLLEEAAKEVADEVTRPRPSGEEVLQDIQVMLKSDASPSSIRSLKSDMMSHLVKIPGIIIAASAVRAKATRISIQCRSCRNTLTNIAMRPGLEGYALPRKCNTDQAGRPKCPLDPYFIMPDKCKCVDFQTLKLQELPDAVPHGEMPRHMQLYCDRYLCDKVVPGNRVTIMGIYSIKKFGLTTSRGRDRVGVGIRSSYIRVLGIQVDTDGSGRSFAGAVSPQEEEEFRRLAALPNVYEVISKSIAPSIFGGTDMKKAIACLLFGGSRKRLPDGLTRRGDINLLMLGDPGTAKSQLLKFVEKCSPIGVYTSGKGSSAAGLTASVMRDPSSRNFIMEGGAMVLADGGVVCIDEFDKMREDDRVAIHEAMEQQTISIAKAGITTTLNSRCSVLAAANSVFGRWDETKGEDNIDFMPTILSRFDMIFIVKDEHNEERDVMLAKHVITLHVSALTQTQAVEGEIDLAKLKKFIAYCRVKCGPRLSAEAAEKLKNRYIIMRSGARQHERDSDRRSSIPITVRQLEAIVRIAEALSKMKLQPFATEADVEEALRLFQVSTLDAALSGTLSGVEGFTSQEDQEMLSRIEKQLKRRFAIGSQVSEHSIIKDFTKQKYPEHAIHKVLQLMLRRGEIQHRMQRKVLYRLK
UniProt P26358: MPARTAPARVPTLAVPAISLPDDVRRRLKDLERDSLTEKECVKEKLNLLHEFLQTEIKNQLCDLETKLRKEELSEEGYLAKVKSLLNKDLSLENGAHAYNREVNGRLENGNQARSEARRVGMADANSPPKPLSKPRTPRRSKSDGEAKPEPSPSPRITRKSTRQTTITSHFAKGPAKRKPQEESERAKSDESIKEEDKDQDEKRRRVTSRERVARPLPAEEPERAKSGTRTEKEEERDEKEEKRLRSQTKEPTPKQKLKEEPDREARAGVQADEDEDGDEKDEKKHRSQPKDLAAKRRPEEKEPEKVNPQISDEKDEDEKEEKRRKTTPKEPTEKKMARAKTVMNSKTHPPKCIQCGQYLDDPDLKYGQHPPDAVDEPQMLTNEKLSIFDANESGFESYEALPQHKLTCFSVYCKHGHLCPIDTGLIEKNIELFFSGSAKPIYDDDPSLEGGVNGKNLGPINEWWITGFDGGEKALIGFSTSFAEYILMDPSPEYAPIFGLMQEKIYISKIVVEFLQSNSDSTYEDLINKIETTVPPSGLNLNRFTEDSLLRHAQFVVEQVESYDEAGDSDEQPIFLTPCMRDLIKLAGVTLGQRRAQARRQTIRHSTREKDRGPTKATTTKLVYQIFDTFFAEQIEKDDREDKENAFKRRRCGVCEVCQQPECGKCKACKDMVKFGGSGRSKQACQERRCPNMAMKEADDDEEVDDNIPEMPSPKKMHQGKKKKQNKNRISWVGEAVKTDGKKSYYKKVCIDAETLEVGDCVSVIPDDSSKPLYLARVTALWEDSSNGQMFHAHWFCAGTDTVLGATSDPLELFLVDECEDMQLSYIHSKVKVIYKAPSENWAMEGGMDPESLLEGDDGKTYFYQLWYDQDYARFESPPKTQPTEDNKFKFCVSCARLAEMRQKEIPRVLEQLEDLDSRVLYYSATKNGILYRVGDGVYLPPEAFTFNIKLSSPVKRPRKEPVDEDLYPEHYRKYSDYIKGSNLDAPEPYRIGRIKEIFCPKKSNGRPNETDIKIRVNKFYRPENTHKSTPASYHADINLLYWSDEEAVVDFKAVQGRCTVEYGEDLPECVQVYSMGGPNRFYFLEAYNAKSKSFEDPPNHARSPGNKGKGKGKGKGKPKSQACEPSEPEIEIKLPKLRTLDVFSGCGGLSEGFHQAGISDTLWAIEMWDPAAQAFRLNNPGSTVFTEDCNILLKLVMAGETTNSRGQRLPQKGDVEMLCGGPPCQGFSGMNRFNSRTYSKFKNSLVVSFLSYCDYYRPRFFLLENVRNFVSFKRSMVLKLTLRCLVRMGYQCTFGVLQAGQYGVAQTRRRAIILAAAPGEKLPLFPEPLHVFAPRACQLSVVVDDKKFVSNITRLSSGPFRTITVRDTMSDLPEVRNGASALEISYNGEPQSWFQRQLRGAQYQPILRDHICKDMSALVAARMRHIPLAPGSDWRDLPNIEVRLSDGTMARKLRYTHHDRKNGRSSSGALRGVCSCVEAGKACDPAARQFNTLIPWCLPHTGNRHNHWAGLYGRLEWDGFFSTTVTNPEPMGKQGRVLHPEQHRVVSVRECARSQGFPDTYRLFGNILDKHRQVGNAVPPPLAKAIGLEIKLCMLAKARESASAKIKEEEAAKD
UniProt P22059, whole entry: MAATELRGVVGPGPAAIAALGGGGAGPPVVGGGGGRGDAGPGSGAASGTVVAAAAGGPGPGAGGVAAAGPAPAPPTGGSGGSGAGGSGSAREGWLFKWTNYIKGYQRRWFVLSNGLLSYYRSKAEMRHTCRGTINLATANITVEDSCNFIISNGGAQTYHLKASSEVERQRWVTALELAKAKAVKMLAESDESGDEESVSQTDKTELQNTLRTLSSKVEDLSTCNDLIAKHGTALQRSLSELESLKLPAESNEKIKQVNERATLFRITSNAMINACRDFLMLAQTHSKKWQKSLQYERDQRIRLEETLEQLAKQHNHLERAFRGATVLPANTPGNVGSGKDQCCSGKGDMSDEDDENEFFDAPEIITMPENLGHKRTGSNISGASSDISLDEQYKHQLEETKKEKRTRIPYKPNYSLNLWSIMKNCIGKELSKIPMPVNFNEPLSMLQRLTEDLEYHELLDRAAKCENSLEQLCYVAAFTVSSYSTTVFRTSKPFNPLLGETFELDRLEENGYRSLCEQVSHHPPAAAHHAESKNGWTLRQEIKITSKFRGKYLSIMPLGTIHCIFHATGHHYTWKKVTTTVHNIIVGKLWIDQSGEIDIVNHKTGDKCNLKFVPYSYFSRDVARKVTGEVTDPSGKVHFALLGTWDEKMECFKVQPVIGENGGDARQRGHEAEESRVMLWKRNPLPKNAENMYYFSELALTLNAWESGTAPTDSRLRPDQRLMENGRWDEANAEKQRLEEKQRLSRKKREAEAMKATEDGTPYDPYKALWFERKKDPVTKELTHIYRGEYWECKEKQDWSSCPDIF
UniProt P27694, whole entry: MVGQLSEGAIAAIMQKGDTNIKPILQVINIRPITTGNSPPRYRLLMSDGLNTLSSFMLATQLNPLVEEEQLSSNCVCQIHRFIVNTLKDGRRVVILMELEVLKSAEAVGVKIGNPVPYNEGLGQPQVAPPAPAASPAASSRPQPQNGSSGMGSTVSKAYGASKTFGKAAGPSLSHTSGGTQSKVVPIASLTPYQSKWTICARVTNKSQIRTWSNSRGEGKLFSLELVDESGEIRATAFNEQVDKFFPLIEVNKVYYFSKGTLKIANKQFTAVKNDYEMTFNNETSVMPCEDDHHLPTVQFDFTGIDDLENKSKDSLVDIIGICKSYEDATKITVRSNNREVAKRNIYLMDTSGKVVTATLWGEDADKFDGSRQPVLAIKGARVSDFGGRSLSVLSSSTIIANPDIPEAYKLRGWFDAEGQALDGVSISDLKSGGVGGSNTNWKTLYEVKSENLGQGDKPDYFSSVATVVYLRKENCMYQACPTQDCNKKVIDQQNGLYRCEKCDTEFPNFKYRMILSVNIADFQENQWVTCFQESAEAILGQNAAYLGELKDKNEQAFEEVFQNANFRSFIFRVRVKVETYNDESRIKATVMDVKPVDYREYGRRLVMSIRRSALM
UniProt P22830: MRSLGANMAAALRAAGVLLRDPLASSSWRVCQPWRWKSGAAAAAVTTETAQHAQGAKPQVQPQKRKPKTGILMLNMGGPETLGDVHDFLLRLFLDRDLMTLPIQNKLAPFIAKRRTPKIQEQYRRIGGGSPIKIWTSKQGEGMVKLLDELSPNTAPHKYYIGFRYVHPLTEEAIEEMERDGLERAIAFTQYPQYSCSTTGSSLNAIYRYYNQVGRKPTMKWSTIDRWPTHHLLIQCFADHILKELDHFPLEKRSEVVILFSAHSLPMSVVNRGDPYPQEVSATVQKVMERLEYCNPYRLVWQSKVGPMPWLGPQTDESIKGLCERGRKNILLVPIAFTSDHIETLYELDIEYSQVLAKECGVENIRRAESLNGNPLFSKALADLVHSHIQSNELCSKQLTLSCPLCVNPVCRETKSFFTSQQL

Compound: CCc1cnccc1C(=O)Nc1cc2c(cc1F)NC(=O)CC2
Assay: melting temperature shift (DMSO Tm minus MBE1-treated Tm) in cellular thermal proteome profiling; higher = less thermal stabilization by MBE1 (negative = stabilized by MBE1)
Conditions: A375

Target | melting temperature shift (MBE1 concentration: 100 nM) [°C] | melting temperature shift (MBE1 concentration: 1 uM) [°C]
MGAT1 (UniProt P26572) | -0.663 | 0.055
ATIC (UniProt P31939) | -0.785 | 0.872
MARK3 (UniProt P27448) | -2.25 | -0.629
IMPDH1 (UniProt P20839) | -0.644 | -0.248
UniProt P35080 | -0.101 | 1.44
APEX1 (UniProt P27695) | 0.837 | 0.421
PSMB4 (UniProt P28070) | -5.2 | -3.58
GNL1 (UniProt P36915) | 0.58 | 0.104
ATP6V1E1 (UniProt P36543) | -1.01 | 0.269
EPHA2 (UniProt P29317) | 1.13 | 0.202
APC (UniProt P25054) | -0.134 | -0.751
SHC1 (UniProt P29353) | -1.03 | 0.446
UniProt P31146 | 0.666 | -0.171
ADSS (UniProt P30520) | -0.933 | -0.55
UniProt P22304 | -4.68 | 2.76
TARS (UniProt P26639) | 0.318 | 0.629
RPL4 (UniProt P36578) | -0.513 | 0.775
CTNNA1 (UniProt P35221) | -0.557 | 0.181
DNAJA1 (UniProt P31689) | -1.75 | -1.36
RPL9 (UniProt P32969) | -2.19 | 3.93
UniProt P29375 | 0.476 | 2.25
PPIB (UniProt P23284) | -0.996 | -2.34
RPL12 (UniProt P30050) | -0.739 | 0.855
UniProt P22413 | -1.95 | 2.28

Target | melting temperature shift (MBE1 concentration: 100 nM) [°C] | melting temperature shift (MBE1 concentration: 1 uM) [°C]
RBMS1 (UniProt P29558) | 0.519 | -2.05
CDC25C (UniProt P30307) | -0.874 | 0.128
CKS2 (UniProt P33552) | -1 | -1.79
CPS1 (UniProt P31327) | 0.0671 | 1.26
EEF1G (UniProt P26641) | 0.195 | 0.171
ALDH4A1 (UniProt P30038) | -0.177 | -0.69
NF2 (UniProt P35240) | 1.4 | 0.653
UniProt P23468 | 1.53 | 0.904
GSTT1 (UniProt P30711) | -3.14 | -3.02
TIA1 (UniProt P31483) | -0.543 | -0.423
YWHAQ (UniProt P27348) | -0.309 | -0.0045
LRPAP1 (UniProt P30533) | -1.82 | -3.48
UniProt P27986 | 1.33 | 0.507
S100A4 (UniProt P26447) | -1.4 | -1.63
ERCC5 (UniProt P28715) | 0.0244 | 0.269
COPB2 (UniProt P35606) | -0.4 | 0.0611
AK4 (UniProt P27144) | -0.731 | -0.0335
MCM5 (UniProt P33992) | -0.353 | 0.421
LMNB1 (UniProt P20700) | 0.574 | 0.0183
CAD (UniProt P27708) | 0.623 | 0.122
MPI (UniProt P34949) | 1.45 | 0.684
MAT2A (UniProt P31153) | -1.66 | 0.372
SDHA (UniProt P31040) | -0.508 | -0.2
RRM1 (UniProt P23921) | -0.282 | 0.208

Target | melting temperature shift (MBE1 concentration: 100 nM) [°C] | melting temperature shift (MBE1 concentration: 1 uM) [°C]
NMT1 (UniProt P30419) | -0.664 | 0.0604
BLVRB (UniProt P30043) | 0.891 | 0.507
ACO1 (UniProt P21399) | -0.362 | 0.698
TKT (UniProt P29401) | -3.82 | -0.867
EPHA3 (UniProt P29320) | 1.28 | 0.372
DNMT1 (UniProt P26358) | -0.523 | -0.0427
HNRNPH1 (UniProt P31943) | -0.692 | -0.452
UBA1 (UniProt P22314) | 0.391 | 0.202
UniProt P21579 | -1.68 | 0.922
ARL2 (UniProt P36404) | -0.59 | 0.456
HMGB2 (UniProt P26583) | -4.35 | -2.79
DCTD (UniProt P32321) | -2.7 | -5.65
ACVR1B (UniProt P36896) | -2.76 | 0
PPP1CC (UniProt P36873) | -0.00671 | 0.93
PRDX5 (UniProt P30044) | -1.64 | -1.51
HIBADH (UniProt P31937) | -2.69 | 0.0855
PHB (UniProt P35232) | -1.37 | -1.71
ARL3 (UniProt P36405) | -2.75 | 0.888
SHMT2 (UniProt P34897) | -1.02 | -1.36
BCKDHB (UniProt P21953) | -0.838 | 0.951
YY1 (UniProt P25490) | -1.51 | -0.372
SRI (UniProt P30626) | -0.759 | -0.845
UniProt P20933 | -0.579 | 1.25
SERPINB6 (UniProt P35237) | -0.959 | 0.342

Single records, as listed above:
ACO1 (UniProt P21399) reads melting temperature shift (MBE1 concentration: 100 nM) [°C]: -0.362; melting temperature shift (MBE1 concentration: 1 uM) [°C]: 0.698
ARL3 (UniProt P36405) reads melting temperature shift (MBE1 concentration: 100 nM) [°C]: -2.75; melting temperature shift (MBE1 concentration: 1 uM) [°C]: 0.888

(further entries)

Target | melting temperature shift (MBE1 concentration: 100 nM) [°C] | melting temperature shift (MBE1 concentration: 1 uM) [°C]
SDHB (UniProt P21912) | -0.904 | -2.99
MPG (UniProt P29372) | -0.416 | 0.656
CPOX (UniProt P36551) | -1.7 | 0.214
FBL (UniProt P22087) | -0.329 | -0.127
ERP29 (UniProt P30040) | -1.26 | -1.49
PPM1A (UniProt P35813) | -0.0977 | 0.537
TYK2 (UniProt P29597) | 12 | 0.113
ATP5F1 (UniProt P24539) | -1.73 | -0.691
CPT2 (UniProt P23786) | 0.117 | 0.437
OSBP (UniProt P22059) | -0.617 | -0.268
CDK2 (UniProt P24941) | -0.315 | 0.682
PPP2R1B (UniProt P30154) | -1.04 | -0.403
ABCD3 (UniProt P28288) | -0.577 | 0.677
RPA1 (UniProt P27694) | 0.43 | -0.299
MAN1A1 (UniProt P33908) | -0.385 | -0.452
ACP1 (UniProt P24666) | -0.673 | 0.268
UniProt P35869 | 0 | -1.37
GK (UniProt P32189) | -1.32 | -0.435
FECH (UniProt P22830) | -0.926 | 0.421
EEF1D (UniProt P29692) | 0.238 | 0.232
DLST (UniProt P36957) | -2.27 | -2.91
GDI1 (UniProt P31150) | -0.657 | -0.282
TCEA1 (UniProt P23193) | -1.44 | -0.778
RASA1 (UniProt P20936) | 0.195 | 0.301

Random excerpt: 5 entries already listed.
Target | melting temperature shift (MBE1 concentration: 100 nM) [°C] | melting temperature shift (MBE1 concentration: 1 uM) [°C]
DLST (UniProt P36957) | -2.27 | -2.91
SDHB (UniProt P21912) | -0.904 | -2.99
FBL (UniProt P22087) | -0.329 | -0.127
MPG (UniProt P29372) | -0.416 | 0.656
EEF1D (UniProt P29692) | 0.238 | 0.232

(listing goes on)

Target | melting temperature shift (MBE1 concentration: 100 nM) [°C] | melting temperature shift (MBE1 concentration: 1 uM) [°C]
RPS3 (UniProt P23396) | -0.714 | -0.177
UniProt P23743 | -0.137 | 0.155
RFC4 (UniProt P35249) | 0.0305 | 0.311
SHMT1 (UniProt P34896) | -1.55 | -1.74
STOM (UniProt P27105) | -2.2 | -3.21
TTK (UniProt P33981) | -1.04 | -0.988
UniProt P31323 | 2.05 | 0.446
S100A11 (UniProt P31949) | -1.11 | -2.02
EPHB2 (UniProt P29323) | -0.738 | 0.104
FDXR (UniProt P22570) | 0.83 | -0.0122
PDIA3 (UniProt P30101) | -1.05 | -0.402
PPIF (UniProt P30405) | -0.0939 | -0.765
UniProt P28749 | 0.128 | 0.0705
MCM4 (UniProt P33991) | 0.788 | 0.244
UniProt P24821 | 1.51 | 0.244
RRM2 (UniProt P31350) | -2.64 | -2.46
CHML (UniProt P26374) | -0.798 | -0.208
ADD1 (UniProt P35611) | -1.65 | 1.1
PEBP1 (UniProt P30086) | -1.61 | 0.354
RFX1 (UniProt P22670) | -0.181 | -0.127
UniProt P30414 | -0.634 | -0.295
UniProt P21397 | -0.611 | -0.122
RPL10 (UniProt P27635) | -1.07 | 0.456
UniProt P32455 | 3.08 | 0.751
